# Measurements as given in the supplement of paper PMC8256030.
# Values joined by “and” are separate entries in the source; they are usually repeats but may differ in a detail not shown here. Identical values can stand only once. Counter-ions that a name gives are not always drawn. The list shows a part of the results. This data set is noisy: repeats of one test often differ as much as different tests do.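 HEK293T cells were given each compound shortly before transfection with a reporter in which red mCherry is followed by the SARS-CoV-2 frameshift element and then GFP in the −1 frame, so GFP appears only after frameshifting.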
# Test system: HEK293T
# Test: percent viability (nuclei count) relative to control; higher = more viable cells
# Conditions: 10 µM; 24 h
row,Compound,percent viability
1,Cc1ccccc1N1C(=O)c2cc(S(N)(=O)=O)c(Cl)cc2NC1C (centres undefined) [metolazone],93.7%
2,CN1C(C(=O)Nc2ccccn2)=C(O)c2ccccc2S1(=O)=O,132%
3,CNCCCN1c2ccccc2CCc2ccccc21 [desipramine],219%
4,CCCCC(CC)COc1ccc(-c2nc(-c3ccc(OC)cc3)nc(-c3ccc(OCC(CC)CCCC)cc3O)n2)c(O)c1 (centres undefined),181%
5,COC(=O)Nc1nc2cc(C(=O)c3ccccc3)ccc2[nH]1,19.3%
6,CC(=O)N[C@@H](CCC(N)=O)C(=O)O,208%
7,O=C(O)CN1C(=O)c2cccc3cccc(c23)C1=O [alrestatin],351%
8,CC(C)NCC(O)COc1cccc2[nH]c3ccccc3c12 (centres undefined) [carazolol],90.2%
9,CCC(C(=O)OCCOCCN(CC)CC)c1ccccc1 (centres undefined) [butamirate],298%
10,COc1cc2c(cc1OC)C(=O)C(CC1CCN(Cc3ccccc3)CC1)C2 (centres undefined),300%
11,O=C(O)CP(=O)(O)O [fosfonet],194%
12,CC(C)OC(=O)Nc1ccc2[nH]c(-c3cscn3)nc2c1 [cambendazole],47%
13,CO[C@H]1/C=C/O[C@@]2(C)Oc3c(C)c(O)c4c(O)c(c5c(nc6cc(C)ccn65)c4c3C2=O)NC(=O)/C(C)=C\C=C\[C@H](C)[C@H](O)[C@@H](C)[C@@H](O)[C@@H](C)[C@H](OC(C)=O)[C@@H]1C,360%
14,CO/N=C(\C(=O)N[C@@H]1C(=O)N2C(C(=O)O)=C(CSc3nnnn3C)CS[C@H]12)c1csc(N)n1,270%
15,CC(C)[C@H](NC(=O)[C@H](CC(=O)O)NC(=O)[C@H](CCCCN)NC(=O)[C@@H](N)CCCN=C(N)N)C(=O)N[C@@H](Cc1ccc(O)cc1)C(=O)O [thymopentin],189%
16,CCc1nnc(NS(=O)(=O)c2ccc(N)cc2)s1 [sulfaethidole],219%
17,CC(CCc1ccccc1)NCC(O)c1ccc(O)c(C(N)=O)c1 (centres undefined) [labetalol],221%
18,CN1CCN(c2c(F)cc3c(=O)c(C(=O)O)cn4c3c2SCC4)CC1 [rufloxacin],257% and 149%
19,CCCCNC(=O)NS(=O)(=O)c1ccc(C)cc1 [Tolbutamide],270%
20,NC(=O)N[C@@H](CCC(=O)O)C(=O)O [Carbaglu],138%
21,CC(C)OC(=O)[C@H](C)N[P@](=O)(OC[C@H]1O[C@@H](n2ccc(=O)[nH]c2=O)[C@](C)(F)[C@@H]1O)Oc1ccccc1 [Sofosbuvir],277%
22,CC(C)NCC(O)c1ccc(NS(C)(=O)=O)cc1 (centres undefined) [Sotalol·HCl],281%
23,CN1CC2c3ccccc3Oc3ccc(Cl)cc3C2C1 (centres undefined) [Asenapine],118%
24,Cc1cc(C#N)cc(C)c1Oc1nc(Nc2ccc(C#N)cc2)nc(N)c1Br [etravirine],48%
